Laboratory results taken from PubChem BioAssay AID504467 (National Center for Advancing Translational Sciences (NCATS), 2011).
Out of some 330,000 compounds screened, about 7,700 (2.3%) were called active. The shares of active, inactive and inconclusive entries below differ from those in the screen. Calls come from the whole dose curve; as a rule, active = well fitted inhibition curve with a large enough effect; inconclusive = small, poorly fitted or top-dose-only effect, or effect the other way; inactive = flat fitted curve, though single readings scatter. Potencies of inconclusive entries are doubtful fits and often do not repeat.

experiment: qHTS screen for small molecules that inhibit ELG1-dependent DNA repair in human embryonic kidney (HEK293T) cells expressing luciferase-tagged ELG1; conditions: HEK293T ELG1-luciferase reporter, luminescence, 16 h, DNA damage induced by 5-fluorouridine; activity change, negative = inhibition: at 46.1 µM (top of the series); note: nearly all actives have a fitted effect of over 55% in size
Outline: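 Cells (2,000 per well) received 5-fluorouridine plus test compound or DMSO and were incubated 16 hr at 37 °C, 5% CO2. Luciferase activity was read by luminescence 30 min after ONE-Glo addition; signal suppression marked inhibition of damage-induced ELG1 function.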
% is set by controls: 0 for no effect and ±100 for the full control effect; potency is the fitted concentration of half-maximal effect.

| SMILES | Potency | activity change, negative = inhibition |
| --- | --- | --- |
| Cc1ccccc1C(=O)Nc1cccc(NC(=O)Cn2cnc3c(=O)n(C)c(=O)n(C)c32)c1 | inconclusive: 16.4 µM [inhibitor, partial curve] |  |
| COc1ccc(-n2c(=S)[nH]c3cc(C(=O)N(C)Cc4ccccc4)ccc3c2=O)cc1 | inconclusive: 23.1 µM [inhibitor, single point] |  |
| Cc1cccc2nc(CNc3ccc(F)cc3)cn12 | inconclusive: 20.6 µM [activator, partial curve, poor fit] |  |
| C=CC[C@@H](CC(=O)N(CCO)Cc1ccccc1)C(=O)NC[C@H](OC(=O)[C@@H](CC=C)Cc1ccc(F)cc1)c1ccccc1 | active: 5.8 µM |  |
| Cc1ccc(N(CC(=O)NC2CCCCC2)C(=O)CNC(=O)c2ccco2)c(C)c1 |  | inactive: 14.6% |
| CC(=O)COc1ccc2c(C)c(-c3ccccc3)c(=O)oc2c1 | inconclusive: 6.51 µM [activator, single point] |  |
| COc1ccc(Cl)cc1N1C(=O)CN(Cc2cc(OC)c(OC)c(OC)c2)C1=S | inconclusive: 25.9 µM [inhibitor, single point] |  |
| Cc1cccc(CC(C)NC(=O)c2cc(COc3ccc(F)cc3F)on2)n1 (stereo unspecified) | inconclusive: 13 µM [activator, partial curve] |  |
| CC(=O)Nc1ccc(/C=N/NC(=O)c2cc3ccccc3nc2C)cc1 | inconclusive: 32.6 µM [inhibitor, partial curve, poor fit] |  |
| COc1ccc(Cl)cc1C(=O)Nc1ccc2c(c1)OCO2 | inconclusive: 16.4 µM [activator, partial curve] |  |
| O=C(CN1CCN(S(=O)(=O)c2ccccc2)CC1)Nc1ccnn1C1CCCC1 |  | inactive: -9.1% |
| CCC(=O)c1ccc(N2CCC(C)CC2)c(F)c1 | inconclusive: 29.1 µM [activator, single point] |  |
| COc1ccccc1CNC(=O)c1cc(C)nc2ccccc12 |  | inactive: 0% |
| CN(CC(=O)Nc1ccccc1Cl)CC(=O)c1c(N)n(Cc2ccccc2)c(=O)n(C)c1=O |  | inactive: 7.29% |
| COc1cccc(CN(Cc2ccco2)S(=O)(=O)c2ccc(S(=O)(=O)NCc3ccccc3)cc2)c1OC | active: 11.6 µM |  |
| Cc1ccccc1C(=O)c1cccn1CC(=O)NCc1cccc(Cl)c1 | inconclusive: 18.3 µM [activator, single point] |  |
| COc1ccc(C(=O)Nc2ccc3nc(C)sc3c2)cc1OC | inconclusive: 29.1 µM [activator, single point] |  |
| CC(=O)N(Cc1ccccc1C)c1cccc(C)c1C |  | inactive: -16% |
| COc1cccc(S(=O)(=O)NCc2ccc(C(=O)N3CCN(c4ccccc4OC)CC3)cc2)c1 | inconclusive: 18.3 µM [inhibitor, single point] |  |
| COc1ccc(CN(C)C(=O)Cc2ccsc2)c(OC)c1OC | inconclusive: 29.1 µM [inhibitor, partial curve, poor fit] |  |
| O=C(CN1C(=O)COc2ccc(S(=O)(=O)N3CCOCC3)cc21)NCc1ccco1 |  | inactive: -1.89% |
| O=C(CN1CCCCCC1)Nc1ccccc1[N+](=O)[O-] |  | inactive: 7.91% |

| SMILES | Potency | activity change, negative = inhibition |
| --- | --- | --- |
| Cc1cc([N+](=O)[O-])ccc1NC(=O)c1ccc(NC(=O)C(C)C)cc1 | inconclusive: 20.6 µM [inhibitor, partial curve] |  |
| C/C=C/C=C\C(=O)Nc1cccc(C2=NOC3(C2)C[C@H](C(N)=O)N(C(=O)CC#N)C3)c1 (stereo partly specified) |  | inactive: 24% |
| COc1cc(SC)ccc1C(=O)N1CC(C)OC(C)C1 (stereo unspecified) | inconclusive: 29.1 µM [inhibitor, single point] |  |
| O=C(NCC(=O)N1CCCCCCC1)c1ccc(Cl)cc1 | inconclusive: 15.8 µM [activator, partial curve] |  |
| Cc1ccc(O)c(C(=O)c2cc(C(=O)NCCc3ccccc3)c(=O)n(CCc3ccccc3)c2)c1 | inconclusive: 20.6 µM [inhibitor, partial curve, poor fit] |  |
| CCC(C)[C@H](NC(=O)C1CC(=O)N(c2ccc3c(c2)OCO3)C1)C(=O)NC1CCCCC1 (stereo partly specified) | inconclusive: 13 µM [activator, partial curve] |  |
| C#CCSc1nnc(CSc2nc3ccccc3s2)n1-c1ccccc1 | inconclusive: 20.6 µM [inhibitor, partial curve, poor fit] |  |
| Cc1ccc(-c2cc(=O)c3cc(Cl)ccc3[nH]2)cc1 | inconclusive: 1.83 µM [activator, full curve] |  |
| COc1ccc(-c2nnc(SCC(=O)c3cccs3)o2)cc1 | inconclusive: 13 µM [activator, partial curve] |  |
| COc1cc(NS(=O)(=O)c2ccc(N/C=C\C(=O)c3ccc(OC)c(OC)c3)cc2)nc(OC)n1 |  | inactive: 5.55% |
| COc1ccc(OC[C@@H](O)CNC(=O)c2cccc3c2C(=O)c2ccc(Cl)cc2S3(=O)=O)cc1 | inconclusive: 16.4 µM [inhibitor, partial curve, poor fit] |  |
| S=C(NCc1cccs1)Nc1ccccc1Cl |  | inactive: 0.787% |
| c1ccc(-c2ncc3c(ccc4ccccc43)n2)cc1 | inconclusive: 0.651 µM [activator, partial curve] |  |
| COc1cccc(NC(=O)CSc2nc3c(oc4ccccc43)c(=O)[nH]2)c1 | inconclusive: 18.4 µM [activator, single point] |  |
| CC(=O)N1c2ccc(S(=O)(=O)N(C)Cc3ccccc3)cc2CC1C (stereo unspecified) | inconclusive: 25.9 µM [inhibitor, single point] |  |
| Cc1noc(C)c1COC(=O)c1ccccc1Sc1ccccc1C#N | active: 23.1 µM |  |
| CN(CC(=O)Nc1ccc(Cl)c(C(F)(F)F)c1)C(=O)c1cccnc1Sc1ccccc1 |  | inactive: -1.7% |
| Cc1cccc(C(=O)OCC(=O)Nc2ccc3c(c2)OCCO3)c1 | inconclusive: 14.6 µM [activator, partial curve] |  |
| CNS(=O)(=O)c1cccc(C(=O)OCC(=O)/C=C2/N(C)c3ccccc3C2(C)C)c1 | inconclusive: 18.4 µM [inhibitor, partial curve] |  |
| COCCNC(=S)N/N=C/c1ccccc1C(=O)O | inconclusive: 23.1 µM [activator, partial curve, poor fit] |  |
| CCCn1nc(C(=O)N2CCN(S(=O)(=O)c3ccc(C)c(C)c3)CC2)c2ccccc2c1=O | active: 23.1 µM |  |
| CN(C)/C=C/C(=O)c1ccc(Oc2ccccc2)cc1 | inconclusive: 16.4 µM [activator, partial curve] |  |

4 of the compounds above, as tab-separated lines:
SMILES	Potency	activity change, negative = inhibition
c1ccc(-c2ncc3c(ccc4ccccc43)n2)cc1	inconclusive: 0.651 µM [activator, partial curve]	
COc1cccc(NC(=O)CSc2nc3c(oc4ccccc43)c(=O)[nH]2)c1	inconclusive: 18.4 µM [activator, single point]	
CC(=O)N1c2ccc(S(=O)(=O)N(C)Cc3ccccc3)cc2CC1C (stereo unspecified)	inconclusive: 25.9 µM [inhibitor, single point]	
Cc1noc(C)c1COC(=O)c1ccccc1Sc1ccccc1C#N	active: 23.1 µM	

Continuation:

| SMILES | Potency | activity change, negative = inhibition |
| --- | --- | --- |
| COCCCNC(=S)N/N=C/c1cccc(OC)c1O | inconclusive: 18.3 µM [inhibitor, partial curve, poor fit] |  |
| O=C(Nc1ccc(Br)cc1)c1cccc(N2C(=O)C3C4CCC(C4)C3C2=O)c1 (stereo unspecified) | active: 16.4 µM |  |
| CCCC(=O)Nc1cc(-c2nn(C)c(=O)c3ccccc23)ccc1OC | inconclusive: 20.6 µM [activator, single point] |  |
| c1coc(CN2CN=C(Nc3nc4ccccc4s3)NC2)c1 | inconclusive: 18.4 µM [activator, partial curve] |  |
| Fc1ccc(-c2noc(-c3ccc4c(c3)CCO4)n2)cc1 | inconclusive: 2.31 µM [activator, partial curve] |  |
| O=C1/C(=C/c2c[nH]c3ccccc23)CCC/C1=C\c1c[nH]c2ccccc12 |  | inactive: -21.2% |
| CCOc1ccc(NC(=O)c2cccc3c2C(=O)N(CCOC)C3)cc1 | inconclusive: 10.3 µM [activator, partial curve] |  |
| Cc1cc(=O)oc2cc(OC(C)C(=O)NCCCN3CCCC3=O)c(Cl)cc12 (stereo unspecified) |  | inactive: 9.45% |
| COCCNC(=S)NNC(=O)CSCc1ccc(Cl)cc1Cl | inconclusive: 20.6 µM [inhibitor, single point] |  |
| N#Cc1ccccc1S(=O)(=O)N1CCC(C(=O)Nc2cccc(C(=O)NC3CC3)c2)CC1 | inconclusive: 29.1 µM [inhibitor, single point] |  |
| Nc1sc(-c2ccccc2)cc1-c1n[nH]c(=S)n1C1CCCCC1 | active: 20.6 µM |  |
| Cn1c(=O)c2c(nc(Oc3ccccc3Cl)n2C)n(C)c1=O | inconclusive: 10.3 µM [inhibitor, partial curve, poor fit] |  |
| COc1ccc(S(=O)(=O)N2CCCCCC2)cc1C(=O)N(C)Cc1c(F)cccc1Cl | inconclusive: 23.1 µM [inhibitor, single point] |  |
| CC1=NN(c2ccccc2)C(=O)C1C(=O)C(=O)Nc1ccc(F)cc1 (stereo unspecified) | inconclusive: 20.6 µM [activator, partial curve] |  |
| CC(C)(C)C(=O)COC(=O)c1cc(-c2cccnc2)nc2ccccc12 | inconclusive: 29.1 µM [inhibitor, single point] |  |
| CCN(Cc1ccccc1)C(=O)c1cccc(S(=O)(=O)N2CCN(c3ccc(F)cc3)CC2)c1 | inconclusive: 29.1 µM [inhibitor, single point] |  |
| CCC(=O)N(CCC(Cc1ccccc1)c1ccc2c(c1)OCO2)Cc1ccccc1F (stereo unspecified) | inconclusive: 16.4 µM [inhibitor, partial curve, poor fit] |  |
| COc1ccccc1CNC(=O)C1CCN(S(=O)(=O)c2ccc3c(c2)CC(C)N3C(=O)C2CC2)CC1 (stereo unspecified) | inconclusive: 23.1 µM [inhibitor, single point] |  |
| CCN(CC)C(=O)CSc1nc2sc(C)c(C)c2c(=O)[nH]1 | inconclusive: 29.1 µM [activator, partial curve, poor fit] |  |
| COc1ccc2[nH]c3c(=O)n(Cc4ccc(C(=O)N5CCC(C(N)=O)CC5)cc4)c(=S)[nH]c3c2c1 | active: 8.2 µM |  |
| Oc1ccc(/C=N\Nc2cc(N3CCOCC3)nc(N3CCOCC3)n2)c(O)c1 | active: 10.3 µM |  |
| CSc1nc(C)cc(OCCNS(=O)(=O)c2cc(C)ccc2C)n1 |  | inactive: -19% |

Gathered by group, the entries above containing a nitro group on carbon

| SMILES | Potency | activity change, negative = inhibition |
| --- | --- | --- |
| O=C(CN1CCCCCC1)Nc1ccccc1[N+](=O)[O-] |  | inactive: 7.91% |
| Cc1cc([N+](=O)[O-])ccc1NC(=O)c1ccc(NC(=O)C(C)C)cc1 | inconclusive: 20.6 µM [inhibitor, partial curve] |  |
